Construct, isoform or probe ends are uncertain for at least one entry.
Test system: GST-tSlARF6A (truncated SlARF6A, putative DNA-binding domain) (Solanum lycopersicum)
Assay: EMSA
Settings: LightShift Chemiluminescent EMSA kit, 6% native polyacrylamide gel; pH and temperature not stated; recombinant protein; protein details: GST (pGEX-4T-1); label: biotin (3' end labeling kit)

Row | Sequence | binding result
1 | AAATAAAGGAATCATCATGCTACTGTCGGCACTAAGTTAAGAGTATTGCT (double strand) [CAB2 promoter probe] | binds
2 | ACAATATATGAAATAGTTACTGTCTCTTTTACCAGGTACTAGAAAA (double strand) [SAMS1 promoter probe] | binds
3 | CATGACAACATCATTAAAATGAGACATAAATTTCAGAGGTGGTGCT (double strand) [SlGLK1 promoter probe] | binds
4 | CTACTTGGGCAACCCAAGCTTGGTCCATGCACAGAGCATCTTAGCCATCT (double strand) [CAB1 promoter probe] | binds
5 | TACTACAGCAAATTTCTGTTATTGTCTCCTCCCATTTAGGCTGTTTTGA (double strand) [RbcS promoter probe] | binds

Reference: PMC6804849
